This is an account of results in article PMC9699677.

Protein sequences, listed by entry. Tags and fused reporters are not part of them.
UniProt Q9LQ02: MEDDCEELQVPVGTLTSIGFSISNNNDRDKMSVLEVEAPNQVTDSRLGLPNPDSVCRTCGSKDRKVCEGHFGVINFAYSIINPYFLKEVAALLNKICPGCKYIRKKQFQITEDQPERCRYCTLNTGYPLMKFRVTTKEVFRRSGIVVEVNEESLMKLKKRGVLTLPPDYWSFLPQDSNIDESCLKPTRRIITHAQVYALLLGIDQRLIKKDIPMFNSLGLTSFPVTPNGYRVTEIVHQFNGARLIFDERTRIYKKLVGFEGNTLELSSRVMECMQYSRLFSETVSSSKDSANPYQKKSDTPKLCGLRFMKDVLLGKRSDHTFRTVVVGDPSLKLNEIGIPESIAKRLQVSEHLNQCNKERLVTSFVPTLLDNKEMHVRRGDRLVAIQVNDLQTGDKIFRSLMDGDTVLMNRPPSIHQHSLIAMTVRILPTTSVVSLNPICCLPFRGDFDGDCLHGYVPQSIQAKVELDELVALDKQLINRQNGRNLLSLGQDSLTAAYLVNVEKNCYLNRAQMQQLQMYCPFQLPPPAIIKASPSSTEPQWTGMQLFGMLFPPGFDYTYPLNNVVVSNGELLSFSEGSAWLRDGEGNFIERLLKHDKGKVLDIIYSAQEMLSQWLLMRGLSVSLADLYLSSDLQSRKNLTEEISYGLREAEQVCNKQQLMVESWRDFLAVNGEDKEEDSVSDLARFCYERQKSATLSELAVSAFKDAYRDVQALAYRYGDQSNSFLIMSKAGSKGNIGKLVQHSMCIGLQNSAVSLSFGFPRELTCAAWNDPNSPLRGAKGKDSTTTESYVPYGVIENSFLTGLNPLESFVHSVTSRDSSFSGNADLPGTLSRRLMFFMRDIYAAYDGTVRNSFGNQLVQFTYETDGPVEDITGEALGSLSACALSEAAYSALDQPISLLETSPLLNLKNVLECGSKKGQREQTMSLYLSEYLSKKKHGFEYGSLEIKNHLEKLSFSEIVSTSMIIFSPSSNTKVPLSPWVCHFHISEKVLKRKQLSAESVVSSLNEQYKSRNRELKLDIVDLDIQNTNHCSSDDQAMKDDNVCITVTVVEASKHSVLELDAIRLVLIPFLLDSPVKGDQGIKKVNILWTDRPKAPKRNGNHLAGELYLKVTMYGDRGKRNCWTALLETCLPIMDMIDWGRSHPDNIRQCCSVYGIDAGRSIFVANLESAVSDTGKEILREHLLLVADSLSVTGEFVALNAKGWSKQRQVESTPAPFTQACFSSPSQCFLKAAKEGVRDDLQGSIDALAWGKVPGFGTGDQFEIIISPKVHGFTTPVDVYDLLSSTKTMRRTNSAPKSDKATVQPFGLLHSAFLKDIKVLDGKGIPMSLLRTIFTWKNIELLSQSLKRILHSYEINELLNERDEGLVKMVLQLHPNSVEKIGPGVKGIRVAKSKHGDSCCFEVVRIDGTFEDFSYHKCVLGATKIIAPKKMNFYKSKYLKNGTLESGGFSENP
UniProt O82504: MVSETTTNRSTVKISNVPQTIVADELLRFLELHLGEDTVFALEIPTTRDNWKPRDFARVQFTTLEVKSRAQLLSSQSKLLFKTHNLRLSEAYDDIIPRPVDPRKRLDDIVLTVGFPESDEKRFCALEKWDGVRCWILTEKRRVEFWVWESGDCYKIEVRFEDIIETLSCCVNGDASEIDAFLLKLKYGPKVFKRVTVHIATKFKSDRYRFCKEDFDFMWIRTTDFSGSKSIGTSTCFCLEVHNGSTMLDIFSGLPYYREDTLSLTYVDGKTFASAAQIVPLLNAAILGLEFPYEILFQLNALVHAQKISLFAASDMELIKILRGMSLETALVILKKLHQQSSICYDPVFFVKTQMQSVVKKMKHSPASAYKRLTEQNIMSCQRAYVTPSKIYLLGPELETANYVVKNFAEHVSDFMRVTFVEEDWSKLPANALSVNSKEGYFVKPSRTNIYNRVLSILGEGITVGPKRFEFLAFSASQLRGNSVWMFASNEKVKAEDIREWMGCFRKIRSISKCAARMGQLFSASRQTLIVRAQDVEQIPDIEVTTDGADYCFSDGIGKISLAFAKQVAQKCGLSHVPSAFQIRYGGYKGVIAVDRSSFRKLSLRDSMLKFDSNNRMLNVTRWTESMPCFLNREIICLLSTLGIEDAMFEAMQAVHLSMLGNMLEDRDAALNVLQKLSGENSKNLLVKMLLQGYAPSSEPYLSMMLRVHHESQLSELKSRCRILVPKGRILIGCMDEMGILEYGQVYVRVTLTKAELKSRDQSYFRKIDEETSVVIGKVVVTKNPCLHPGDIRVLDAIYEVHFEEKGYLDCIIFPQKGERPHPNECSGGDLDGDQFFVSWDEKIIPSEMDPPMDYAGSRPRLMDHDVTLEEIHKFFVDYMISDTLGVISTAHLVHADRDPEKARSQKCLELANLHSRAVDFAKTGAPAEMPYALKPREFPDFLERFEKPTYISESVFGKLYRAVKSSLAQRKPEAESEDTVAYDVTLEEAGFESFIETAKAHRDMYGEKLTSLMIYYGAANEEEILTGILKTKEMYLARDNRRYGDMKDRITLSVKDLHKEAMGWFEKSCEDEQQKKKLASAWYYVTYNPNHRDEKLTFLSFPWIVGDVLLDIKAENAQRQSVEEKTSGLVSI

For test [1], the target named is nuclear RNA polymerase D1 (NRPD1)-HA, largest subunit of RNA polymerase IV (Arabidopsis thaliana) (UniProt Q9LQ02). The experiment in a line: affinity purification with mass spectrometry; chromatin immunoprecipitation coupled with mass spectrometry (ChIP-MS) from inflorescences; NRPD1-3xFLAG on anti-FLAG M2 magnetic beads or NRPD1-3xHA by HA antibody with Dynabeads Protein A and G; nontransgenic Col-0 as control; two independent replicates.

Test [2] has as its target nuclear RNA polymerase D1 (NRPD1)-3xFLAG, largest subunit of RNA polymerase IV (Arabidopsis thaliana) (UniProt Q9LQ02). The description is as above.

These are yes or no findings as the source states them, for the method shown. In cells and extracts the contact can be indirect. These calls come from enrichment with a bait or labelling near it, and not all partners need be listed.

RDR2 (from UniProt O82504 1-1133): the binding result in test [1] and in test [2] was “binds” throughout.

B1: SAWADEE HOMEODOMAIN HOMOLOGUE 1 (SHH1) (protein, UniProt Q9XI47 1-258)
chain: MAASDDSSHYFTEFTLSEIVDMENLYKELGDQSLHKDFCQTVASTFSCSVNRNGKSSITWKQVQIWFQEKLKHQSQPKSKTLPSPPLQIHDLSNPSSYASNASNATFVGNSTFVQTRKGKASDLADLAFEAKSARDYAWYDVSSFLTYRVLRTGELEVRVRFSGFDNRHDEWVNVKTSVRERSIPVEPSECGRVNVGDLLLCFQEREDQALYCDGHVLNIKRGIHDHARCNCVFLVRYELDNTEESLGLERICRRPEE
As for B1, the binding result in test [1] and in test [2] was “binds” throughout.
